Data as given in the supplement of paper PMC6078165.

System: MDAMB468
Assay: relative JC-1 red fluorescence (viability) vs pre-drug, coculture with fibroblast (fraction); higher = more viable cancer cells
Conditions: 100 µM
Method: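 JC-1 labelled TNBC cells cocultured 1:1 (1,500 cells each) with CellTrace Violet stained primary or stromal fibroblasts in 384-well plates in FluoroBrite medium, treated with one of 42 anticancer drugs at 0.1, 1, 10 or 100 uM. JC-1 red fluorescence (mitochondrial integrity in cancer cells only) was read by plate reader every 8 h for 72 h. Values are normalised to each well's pre-drug value. The stock of one drug was tenfold lower, so its dose labels may be too high.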

CC(=O)O[C@@]12CO[C@@H]1C[C@H](O)[C@@]1(C)C(=O)[C@H](O)C3=C(C)[C@@H](OC(=O)[C@H](O)[C@@H](NC(=O)OC(C)(C)C)c4ccccc4)C[C@@](O)([C@@H](OC(=O)c4ccccc4)[C@H]21)C3(C)C [Docetaxel]
relative JC-1 red fluorescence
Conditions	40 h	48 h	56 h	64 h	72 h
coculture fibroblast: C12385	–	0.709	0.648	0.61	0.586
coculture fibroblast: H6013	–	0.857	0.8493	0.863	0.838
coculture fibroblast: H6019	–	0.713	0.674	0.651	0.646
coculture fibroblast: H6076	–	0.877	0.811	0.784	0.841
coculture fibroblast: H6231	–	0.793	0.752	0.731	0.736
coculture fibroblast: HADF	–	0.818	0.809	0.825	0.792
coculture fibroblast: HCFa	–	0.802	0.773	0.772	0.75
coculture fibroblast: HCPF	–	0.832	0.749	0.72	0.692
coculture fibroblast: HHSteC	0.813	0.8453	0.783	0.774	0.7239
coculture fibroblast: HMF	0.777	0.7252	0.643	0.608	0.558
coculture fibroblast: HPFa	0.822	0.835	0.782	0.775	0.725
coculture fibroblast: HUF	0.6781	0.6446	0.5921	0.556	0.537
coculture fibroblast: Hs5	0.973	0.953	0.929	0.9122	0.981
coculture fibroblast: Hs27A	0.745	0.7571	0.7609	0.758	0.737
coculture fibroblast: Hs343T	0.812	0.743	0.65	0.609	0.572
coculture fibroblast: WS1	0.6827	0.646	0.617	0.576	0.5591

The reference is the same well before dosing, and untreated signal decays as well.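 Labels refer to human fibroblasts, largely primary: uterine (C12385, HUF), lung (H6013), bone (Hs27A), adrenal (HADF), skin (WS1), plus mammary HMF and breast cancer-associated Hs343T. Cancer lines are basal-like or mesenchymal-like triple-negative breast cancer. The paper counts as hits responses shifting over 3x the replicate standard deviation. The tissue of the other fibroblasts is not given here.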
